Results deposited as PubChem BioAssay AID1259266 (Sanger Institute, 2017)

- Purpose: 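Search kinases and colorectal cancer genes for essential genes and drug synergy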 (primary screen)
- Cells: LS123 human colorectal cancer cells
- Knock-down reagent: siRNA pool against human genes
- Conditions: anchor drugs BYL719 (1 µM), cetuximab (5 µg/ml) or trametinib (10 nM), each chosen to barely slow growth alone; DMSO vehicle as the drug-free arm
- Measured: 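Viability relative to non-targeting control pools, replicate mean, with a robust z-score for knock-down alone and synergy scores for each anchor drug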
- Direction: robust z-score, knock-down alone: higher = more cells surviving after knock-down; viability, knock-down alone: higher = more viable cells; synergy score with trametinib and synergy score with BYL719 and synergy score with cetuximab: higher = stronger synthetic lethality with drug
- Hit rule: 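Essential when the robust z-score of the knock-down alone is below -3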
- Calls: active = essential (knock-down alone cuts viability); inactive = no change
Shown is a random part of 794 reagents. 16 of all reagents (2%) count as active. 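Calls reflect knock-down alone, not drug synergy; viability seems capped at 1 and z-scores at 0.585.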 Reagent sequences are not shown. Not stated in the record: the amount of reagent, the time to read-out.

The first 5 records, to show the layout:
no.	Target gene	robust z-score, knock-down alone	viability, knock-down alone (fraction of control)	synergy score with trametinib	synergy score with BYL719	synergy score with cetuximab	Call
1	LMTK2 (lemur tail kinase 2)	0.0859	0.97	-0.0817	-0.0872	-0.0415	inactive
2	HUNK (hormonally up-regulated Neu-associated kinase)	-0.807	0.917	0.0814	0.0237	-0.0939	inactive
3	NTN4 (netrin 4)	0.183	0.976	-0.0537	-0.146	0.054	inactive
4	ACVR1 (activin A receptor type 1)	0.585	1	-0.104	-0.0691	-0.0122	inactive
5	RPS6KA3 (ribosomal protein S6 kinase A3)	0.585	1	-0.155	-0.101	-0.0122	inactive

The list itself, from the first entry:
no.	Target gene	robust z-score, knock-down alone	viability, knock-down alone (fraction of control)	synergy score with trametinib	synergy score with BYL719	synergy score with cetuximab	Call
1	LMTK2 (lemur tail kinase 2)	0.0859	0.97	-0.0817	-0.0872	-0.0415	inactive
2	HUNK (hormonally up-regulated Neu-associated kinase)	-0.807	0.917	0.0814	0.0237	-0.0939	inactive
3	NTN4 (netrin 4)	0.183	0.976	-0.0537	-0.146	0.054	inactive
4	ACVR1 (activin A receptor type 1)	0.585	1	-0.104	-0.0691	-0.0122	inactive
5	RPS6KA3 (ribosomal protein S6 kinase A3)	0.585	1	-0.155	-0.101	-0.0122	inactive
6	BRSK2 (BR serine/threonine kinase 2)	0.585	1	-0.126	-0.0903	-0.0122	inactive
7	DGKK (diacylglycerol kinase kappa)	0.585	1	-0.0426	-0.0381	-0.0122	inactive
8	RIOK3 (RIO kinase 3)	-1.91	0.852	-0.173	-0.101	-0.0374	inactive
9	GUCY2C (guanylate cyclase 2C)	0.585	1	-0.0519	-0.0428	-0.0122	inactive
10	MET (MET proto-oncogene, receptor tyrosine kinase)	0.585	1	-0.184	-0.0764	-0.0122	inactive
11	NEK8 (NIMA related kinase 8)	-2.58	0.812	-0.0684	-0.0147	0.0571	inactive
12	CDK11B (cyclin dependent kinase 11B)	0.585	1	-0.114	-0.159	-0.0122	inactive
13	DLG4 (discs large MAGUK scaffold protein 4)	-0.00532	0.965	0.0412	-0.0153	-0.0469	inactive
14	IRAK1 (interleukin 1 receptor associated kinase 1)	0.126	0.973	0.0523	-0.0412	-0.0223	inactive
15	MAP3K6 (mitogen-activated protein kinase kinase kinase 6)	0.585	1	-0.186	-0.159	-0.0122	inactive
16	PIK3C2G	0.268	0.981	0.129	0.0647	0.108	inactive
17	BUB1 (BUB1 mitotic checkpoint serine/threonine kinase)	-2.59	0.811	-0.232	-0.176	-0.109	inactive
18	PHKG2 (phosphorylase kinase catalytic subunit gamma 2)	0.585	1	-0.0253	-0.159	-0.00532	inactive
19	BTK (Bruton tyrosine kinase)	-0.514	0.935	-0.0253	-0.0592	0.0168	inactive
20	CSNK1E (casein kinase 1 epsilon)	-1.8	0.858	-0.138	-0.12	-0.0207	inactive
21	PAK5 (p21 (RAC1) activated kinase 5)	-0.0906	0.96	-0.0768	-0.107	0.0462	inactive
22	PTK7 (protein tyrosine kinase 7 (inactive))	-2.2	0.835	-0.0634	-0.034	0.0277	inactive
23	BMP2K (BMP2 inducible kinase)	0.585	1	-0.107	-0.1	-0.0122	inactive
24	TLK2 (tousled like kinase 2)	0.585	1	-0.136	-0.159	-0.0122	inactive
25	MAP3K8 (mitogen-activated protein kinase kinase kinase 8)	0.585	1	-0.0422	-0.0254	0.054	inactive
26	EPHA6 (EPH receptor A6)	-3.13	0.78	0.0329	-0.0404	0.0497	active
27	MAPK10 (mitogen-activated protein kinase 10)	0.585	1	-0.0901	-0.159	-0.0122	inactive
28	TRPM6	0.585	1	-0.186	-0.156	-0.0122	inactive
29	NME6 (NME/NM23 nucleoside diphosphate kinase 6)	-1.74	0.862	-0.108	-0.0712	-0.0471	inactive
30	RIOK2 (RIO kinase 2)	-0.265	0.95	-0.145	-0.0399	-0.0489	inactive
31	PANK1 (pantothenate kinase 1)	0.585	1	-0.129	-0.159	-0.0122	inactive
32	ZAP70 (zeta chain of T cell receptor associated protein kinase 70)	-0.116	0.958	-0.0608	-0.00129	0.047	inactive
33	PFKFB3 (6-phosphofructo-2-kinase/fructose-2,6-biphosphatase 3)	0.585	1	-0.0103	-0.0935	-0.0122	inactive
34	MYLK3 (myosin light chain kinase 3)	0.585	1	-0.0268	-0.0675	-0.0122	inactive
35	AURKB (aurora kinase B)	-0.618	0.929	-0.0897	-0.0891	-0.0382	inactive
36	TSKS (testis specific serine kinase substrate)	0.585	1	-0.0298	-0.0959	-0.0122	inactive
37	TRIB3 (tribbles pseudokinase 3)	0.585	1	-0.0461	-0.0523	-0.0122	inactive
38	BRDT (bromodomain testis associated)	-0.224	0.952	-0.221	-0.153	-0.0419	inactive
39	FN3KRP (fructosamine 3 kinase related protein)	0.585	1	0.111	0.0235	0.159	inactive
40	PKMYT1 (protein kinase, membrane associated tyrosine/threonine 1)	0.585	1	-0.0324	-0.128	-0.0122	inactive
41	MAPKAPK3 (MAPK activated protein kinase 3)	-2.39	0.824	-0.125	-0.0328	0.0373	inactive
42	EPHA7 (EPH receptor A7)	-1.27	0.89	-0.0265	-0.127	-0.0294	inactive
43	UCK1 (uridine-cytidine kinase 1)	0.268	0.981	-0.0397	-0.0933	-0.00656	inactive
44	MAP3K1 (mitogen-activated protein kinase kinase kinase 1)	0.224	0.979	-0.196	-0.146	-0.0334	inactive
45	DTYMK (deoxythymidylate kinase)	0.585	1	-0.186	-0.159	-0.0122	inactive
46	PDK2 (pyruvate dehydrogenase kinase 2)	-0.515	0.935	-0.0895	-0.166	-0.0506	inactive
47	MAPK6 (mitogen-activated protein kinase 6)	0.585	1	-0.0717	-0.0291	0.0598	inactive
48	ACSL6 (acyl-CoA synthetase long chain family member 6)	0.585	1	-0.156	-0.159	-0.0122	inactive
49	MAP2K5 (mitogen-activated protein kinase kinase 5)	0.585	1	-0.024	-0.0621	-0.0122	inactive
50	CTNNB1 (catenin beta 1)	-0.351	0.944	-0.0462	-0.109	-0.0106	inactive
51	TRIM27 (tripartite motif containing 27)	-0.766	0.92	-0.127	-0.038	-0.0385	inactive
52	PACSIN1 (protein kinase C and casein kinase substrate in neurons 1)	0.0487	0.968	-0.0634	-0.0861	0.0137	inactive
53	CREBBP (CREB binding lysine acetyltransferase)	0.585	1	-0.0851	-0.000273	-0.0122	inactive
54	TRPM7	-0.253	0.95	-0.0737	-0.0376	0.0121	inactive
55	RPS6KA6 (ribosomal protein S6 kinase A6)	0.585	1	-0.0598	-0.0994	-0.0122	inactive
56	IPMK (inositol polyphosphate multikinase)	0.247	0.98	-0.112	-0.0519	-0.0321	inactive
57	CDK3 (cyclin dependent kinase 3)	-0.545	0.933	0.0725	-0.0833	0.00866	inactive
58	HASPIN (histone H3 associated protein kinase)	-0.0477	0.962	-0.0108	-0.0696	-0.0493	inactive
59	INSR (insulin receptor)	0.585	1	-0.156	-0.103	-0.0122	inactive
60	AK2 (adenylate kinase 2)	0.585	1	-0.0289	-0.101	-0.0122	inactive
61	CDK13 (cyclin dependent kinase 13)	0.585	1	-0.186	-0.0741	-0.0122	inactive
62	MARK3 (microtubule affinity regulating kinase 3)	-1.39	0.883	-0.0353	-0.148	-0.0652	inactive
63	CALM1 (calmodulin 1)	0.585	1	-0.091	-0.117	-0.0122	inactive
